Results: PMC10800076
These are yes or no findings as the source states them, for the method shown. In cells and extracts the contact can be indirect. Here binding means that the protein was enriched with, or labelled near, the bait; the list need not be complete. Sequences can lack the tags named with a protein.

Sequences of proteins named here, by UniProt entry; tags and fusion partners are left off. Residues count along the entry.
UniProt P25311, residues 21-298: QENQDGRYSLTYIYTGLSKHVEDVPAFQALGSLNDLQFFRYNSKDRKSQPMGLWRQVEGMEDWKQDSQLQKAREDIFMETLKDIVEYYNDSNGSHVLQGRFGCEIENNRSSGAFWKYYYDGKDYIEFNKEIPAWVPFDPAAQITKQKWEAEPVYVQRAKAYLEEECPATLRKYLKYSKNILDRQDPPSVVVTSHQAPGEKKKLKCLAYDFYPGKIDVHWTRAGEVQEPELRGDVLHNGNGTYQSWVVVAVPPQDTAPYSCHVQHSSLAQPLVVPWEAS

Biological target: T1, MIIP with Streptavidin tag (S) and Flag tag (F), in pcDNA3.1(+) (human) (UniProt Q5JXC2)
T1 sequence: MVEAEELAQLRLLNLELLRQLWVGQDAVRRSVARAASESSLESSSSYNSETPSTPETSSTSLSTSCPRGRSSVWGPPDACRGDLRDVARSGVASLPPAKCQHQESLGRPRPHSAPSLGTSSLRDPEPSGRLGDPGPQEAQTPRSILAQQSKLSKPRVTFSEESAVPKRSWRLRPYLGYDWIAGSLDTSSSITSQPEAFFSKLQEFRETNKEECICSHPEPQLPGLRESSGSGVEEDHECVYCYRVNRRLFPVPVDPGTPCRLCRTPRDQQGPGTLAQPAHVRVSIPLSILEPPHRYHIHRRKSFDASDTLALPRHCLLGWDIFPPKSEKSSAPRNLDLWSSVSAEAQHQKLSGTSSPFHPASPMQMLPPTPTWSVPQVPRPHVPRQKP
Assay: affinity purification with mass spectrometry; tandem affinity purification of MIIP and mass spectrometry of associated proteins; cells not given

## AZGP1 (alpha-2-glycoprotein 1, zinc-binding), endogenous (from UniProt P25311 21-298)
  binding: binds
